The source of these data is publication PMC9410764, “EmCyclinD-EmCDK4/6 complex is involved in the host EGF-mediated proliferation of Echinococcus multilocularis germinative cells via the EGFR-ERK pathway” (Frontiers in Microbiology, 2022).

Chains of the proteins cited; added tags and fusions are not shown.
UniProt A0A068Y4X2: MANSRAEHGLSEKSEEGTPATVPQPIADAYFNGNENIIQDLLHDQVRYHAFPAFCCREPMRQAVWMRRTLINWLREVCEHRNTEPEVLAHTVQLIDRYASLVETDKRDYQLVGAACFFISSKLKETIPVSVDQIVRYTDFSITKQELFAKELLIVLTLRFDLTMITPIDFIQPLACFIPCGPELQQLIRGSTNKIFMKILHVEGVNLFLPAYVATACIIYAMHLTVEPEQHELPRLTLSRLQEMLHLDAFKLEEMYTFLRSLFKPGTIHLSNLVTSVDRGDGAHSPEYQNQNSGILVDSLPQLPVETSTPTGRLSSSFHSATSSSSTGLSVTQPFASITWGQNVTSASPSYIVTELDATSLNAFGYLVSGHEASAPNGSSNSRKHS

The assay deals with T1, EmCDK2 (Echinococcus multilocularis CDK2 homolog, locus EmuJ_000258800) (Echinococcus multilocularis).
T1 sequence: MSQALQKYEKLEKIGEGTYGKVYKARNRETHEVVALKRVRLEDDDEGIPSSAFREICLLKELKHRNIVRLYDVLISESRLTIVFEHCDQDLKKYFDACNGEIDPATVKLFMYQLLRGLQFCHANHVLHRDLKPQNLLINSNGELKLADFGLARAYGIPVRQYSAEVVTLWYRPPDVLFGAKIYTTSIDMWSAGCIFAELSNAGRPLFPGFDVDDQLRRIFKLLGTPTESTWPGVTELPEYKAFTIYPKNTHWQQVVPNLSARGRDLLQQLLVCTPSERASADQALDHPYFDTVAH
Nature of the assay: co-IP; expression plasmids co-transfected into HEK-293T cells; lysates harvested 36 h after transfection in RIPA lysis buffer; anti-Myc or anti-HA antibody conjugated Sepharose beads; blot with anti-Myc and anti-HA.

Results are given in words; binding and its absence hold for the method and conditions named. Binding seen in cells or lysates may run through a third protein.

As to “EmCyclinD (Echinococcus multilocularis cyclin D homolog, locus EmuJ_000456500), Myc-tagged (from UniProt A0A068Y4X2 1-386)”, the binding result was “no binding”.
